Results from patent EP0425828A2, “Facteur thymique sérique for prevention and remedy of disorders of decrease in the number of blood corpuscles” (MITSUI TOATSU CHEMICALS, Inc., priority 1989, dated 1991).
Not every detail of the peptide structures is certain; ends, links or a residue may be inferred. Square brackets hold non-standard residues; d marks the D form. Peptide text beside a SMILES is read from it. pGlu = O=C1CC[C@@H](C(=O)O)N1

How the values were obtained:
[1] = test system: leucocytes in peripheral blood; test: Effect on mice to which mitomycin (MMC) was orally administered: leucocyte count; format: in vivo, female ICR mice; conditions: FTS substance 100 mg (so in the source) i.p. once a day for 4 days from two days before MMC 5 mg/kg oral once
[2] = test system: leucocytes; test: Effect on mice to which 5-fluorouracil (5-FU) was orally administered: leucocyte count; format: in vivo, female ICR mice; conditions: FTS substance 100 µg i.p. once a day for 4 days from two days before 5-FU 50 mg/kg oral once
[3] = Effect on mice to which CPA was intraperitoneally administered: body weight; format: in vivo, male C3H/HeN mice; conditions: CPA jointly with FTS substance
[4] = test system: reticulocytes (RET); test: Effect on mice to which CPA was intraperitoneally administered: blood inspection, RET; format: in vivo, male C3H/HeN mice
[5] = test system: leucocytes; test: Effect on mice to which 5-FU was intraperitoneally administered: leucocyte count; format: in vivo, female ICR/JCL mice
[6] = test system: RBC, HGB, HCT, etc.; test: Effect on mice to which CPA was intraperitoneally administered: other blood parameters; format: in vivo, male C3H/HeN mice; conditions: CPA jointly with FTS substance
[7] = test system: leucocytes (WBC); test: Effect on mice to which cyclophosphamide (CPA) was intraperitoneally administered: blood inspection, WBC; format: in vivo, male C3H/HeN mice; conditions: for WBC, mean value ± S.D.: CPA (400 mg/kg i.p.) jointly with FTS substance 100 µg s.c. for 12 days
[8] = test system: platelets (PLT); test: Effect on mice to which CPA was intraperitoneally administered: blood inspection, PLT; format: in vivo, male C3H/HeN mice; conditions: for PLT: CPA (400 mg/kg i.p.) jointly with FTS substance 100 µg s.c. for 12 days
[9] = test system: leucocytes in peripheral blood; format: in vivo, female ICR/JCL mice

## C[C@H](NC(=O)[C@@H]1CCC(=O)N1)C(=O)N[C@@H](CCCCN)C(=O)N[C@@H](CO)C(=O)N[C@@H](CCC(N)=O)C(=O)NCC(=O)NCC(=O)N[C@@H](CO)C(=O)N[C@@H](CC(N)=O)C(=O)O [FTS substance, FTS·CH3COOH·2H2O] ([pGlu]AKSQGGSN-OH)
[1]
  temporary decrease in the number of leucocytes in peripheral blood on the day succeeding the administration of MMC: prevent or suppress the temporary decrease in the numbr of leucocytes
[2]
  decrease in the number of leucocytes caused by the administration of 5-FU: prevent or suppress the decrease in the number of leucocytes
[3]
  decrease in body weight: prevented
[4]; 200 mg/kg or 100 mg/kg of CPA jointly with FTS substance, 7th day
  RET recovery: recovered to the normal range
[4]; 7th day, CPA (400 mg/kg i.p.) jointly with FTS substance 100 µg s.c. for 12 days
  RET: 40.8±7.2 0/00
[4]; CPA jointly with FTS substance
  decrease in RET: Decrease in RET was suppressed
[5]; 5-FU 60 µg/0.1 ml i.p. for 10 days jointly with FTS substance 100 µg s.c. for 12 days
  number of leucocytes, % of the group to which physiological saline was administered: 60-90%
[5]; 5-FU i.p. jointly with FTS substance 100 µg s.c. for 12 days
  recovery of the number of leucocytes to the normal range after completion of the administration of the anti-cancer agent: recovery of the number to the normal range was promoted
[6]
  decrease in other blood parameters of the blood inspection, i.e. RBC, HGB, HCT, etc.: suppressed
[7]; 3rd day
  WBC, mean value ± S.D.: 17.0±2.0 x 10^2/mm^3
[7]; 5th day
  WBC, mean value ± S.D.: 6.4±0.3 x 10^2/mm^3
[7]; CPA jointly with FTS substance
  decrease in WBC: decrease in WBC was suppressed
[7]; CPA jointly with FTS substance, 7th and 10th days
  recovery of WBC: recovery of WBC was promoted
[8]; 5th day
  PLT: 580±49 x 10^3/mm^3
[8]; 7th day
  PLT: 540±87 x 10^3/mm^3
[8]; CPA jointly with FTS substance
  decrease in PLT: Decrease in PLT was suppressed
[9]; MMC 20 µg/0.1 ml i.p. for 10 days jointly with FTS substance 100 µg s.c. for 12 days
  number of leucocytes, % of the group to which physiological saline was administered: 60-80%
[9]; MMC i.p. jointly with FTS substance 100 µg s.c. for 12 days
  recovery of the number of leucocytes to the normal range after completion of the administration of the anti-cancer agent: recovery of the number to the normal range was promoted
